Assay results: PubChem BioAssay AID256 (DTP/NCI, 2004)
The list shows only some results of the screen, not a fair sample: it is rich in T/C values a quarter to a half above the control, in often repeated tests (any T/C) and in doses without a T/C. Further doses and runs are listed elsewhere. T/C is the treated group as % of the vehicle group. Some doses have a count of surviving animals in place of a T/C: the source holds a T/C of zero for them, seemingly a mark for toxic or unscored doses. Some survivor counts are full or nearly so, which does not show that the dose was tolerated: the source hardly ever lists a survival T/C far under the control, and the zero likely stands for such cases as well. Survivors were counted at the toxicity check, usually on the fifth day, unless a day is given; later deaths do not show. Schedule codes are those of the source, read here as Q, the interval in days (D) or hours (H), X, the number of doses. Some doses were run more than once; their values stand side by side, smallest first. Where survival is the endpoint, this PubChem deposit counts one and a half times the control or more as active, and values a quarter to a half above the control carry no call in these data; other NCI protocols may use other cut-offs. Some T/C values are followed by the survivors on the day toxicity was checked, most often the fifth; where none is given, no animal had died by that day. Counts like (3×) say how often a value occurs here. Some schedule codes hold Z or #, which are not explained here.

System: CD2F1 mice, L1210 leukemia ip, survival T/C
Experiment: NCI In Vivo Anticancer Drug Screen. Data for tumor model L1210 Leukemia (intraperitoneal) in CD2F1 (CDF1) mice
Conditions: higher T/C = longer survival
Procedure, shortened: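 Each value reflects a quotient of treated over vehicle control outcomes in mice with a transplanted tumor.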

[1] = T/C endpoint: mean survival time, dose: 320.0 mg/kg/injection, schedule: Q01DX001 (ip), vehicle: alkali diluted with water

S=c1nc[nH]c2nc[nH]c12
survivor count (T/C endpoint: mean survival time, dose: 160.0 mg/kg/injection, schedule: Q01DX009 (ip), vehicle: other): 5 of 6 | T/C (T/C endpoint: mean survival time, dose: 160.0 mg/kg/injection, schedule: Q04DX002 (ip), vehicle: saline): 144 % of control | T/C (T/C endpoint: mean survival time, dose: 180.0 mg/kg/injection, schedule: Q04DX003 (ip), vehicle: saline): 147 % of control | T/C (T/C endpoint: mean survival time, dose: 180.0 mg/kg/injection, schedule: Q## X006 (ip), vehicle: saline): 146 % of control | T/C (T/C endpoint: mean survival time, dose: 200.0 mg/kg/injection, schedule: Q04DX003 (ip), vehicle: alkali diluted with saline): 141, 144, 156 [4 of 6 alive], 157 % of control | T/C (T/C endpoint: mean survival time, dose: 225.0 mg/kg/injection, schedule: Q04DX003 (ip), vehicle: alkali diluted with saline): 126 % of control | T/C (T/C endpoint: mean survival time, dose: 250.0 mg/kg/injection, schedule: Q04DX003 (ip), vehicle: alkali diluted with saline): 128 % of control | T/C (T/C endpoint: mean survival time, dose: 255.0 mg/kg/injection, schedule: Q01DX001 (ip), vehicle: alkali diluted with saline): 130 % of control [8 of 10 alive] | T/C (T/C endpoint: mean survival time, dose: 270.0 mg/kg/injection, schedule: Q04DX003 (ip), vehicle: saline): 140 % of control | T/C (T/C endpoint: mean survival time, dose: 270.0 mg/kg/injection, schedule: Q## X002 (ip), vehicle: saline): 147 % of control [9 of 10 alive] | T/C [1]: 132 % of control [4 of 6 alive] | survivor count [1]: 0 of 3 | survivor count (T/C endpoint: mean survival time, dose: 320.0 mg/kg/injection, schedule: Q01DX005 (ip), vehicle: alkali diluted with water): 1 of 6 | survivor count (T/C endpoint: mean survival time, dose: 380.0 mg/kg/injection, schedule: Q01DX001 (ip), vehicle: alkali diluted with saline): 0 of 10 | survivor count (T/C endpoint: mean survival time, dose: 400.0 mg/kg/injection, schedule: Q04DX003 (ip), vehicle: alkali diluted with saline): 0 of 6 and 3 of 6 | survivor count (T/C endpoint: mean survival time, dose: 400.0 mg/kg/injection, schedule: Q04DX003 (ip), vehicle: alkali diluted with water): 2 of 6 | survivor count (T/C endpoint: mean survival time, dose: 416.85 mg/kg/injection, schedule: Q04DX003 (ip), vehicle: alkali diluted with saline): 10 of 10 | survivor count (T/C endpoint: mean survival time, dose: 450.0 mg/kg/injection, schedule: Q04DX003 (ip), vehicle: alkali diluted with saline): 0 of 8 | survivor count (T/C endpoint: mean survival time, dose: 607.0 mg/kg/injection, schedule: Q04DX003 (ip), vehicle: saline with Tween-80): 6 of 6 | survivor count (T/C endpoint: mean survival time, dose: 920.0 mg/kg/injection, schedule: Q04DX003 (ip), vehicle: saline with Tween-80): 5 of 6 | T/C (T/C endpoint: median survival time, dose: 20.0 mg/kg/injection, schedule: Q01DX005 (ip), vehicle: Klucel (hydroxypropylcellulose) (HPC)): 135 % of control | T/C (T/C endpoint: median survival time, dose: 20.0 mg/kg/injection, schedule: Q01DX005 (ip), vehicle: alkali diluted with saline): 111, 112, 116, 123, 149, 150, 151 % of control | T/C (T/C endpoint: median survival time, dose: 20.0 mg/kg/injection, schedule: Q01DX005 (ip), vehicle: alkali diluted with water, evaluated on day 20): 105, 109, 118, 134, 141, 144, 145 % of control | T/C (T/C endpoint: median survival time, dose: 20.0 mg/kg/injection, schedule: Q01DX005 (ip), vehicle: alkali diluted with water, evaluated on day 30): 106, 109 (2×), 110 (2×), 111 [5 of 6 alive], 112 (2×), 114 (3×), 116 (5×), 118 (4×), 119, 120, 121 (3×), 122 (2×), 123 (2×), 128 (2×), 134, 135, 139 % of control | T/C (T/C endpoint: median survival time, dose: 20.0 mg/kg/injection, schedule: Q01DX005 (ip), vehicle: alkali diluted with water, evaluated on day 35): 118 % of control | T/C (T/C endpoint: median survival time, dose: 20.0 mg/kg/injection, schedule: Q01DX005 (ip), vehicle: saline): 106, 125 (2×), 135, 143, 191 % of control | T/C (T/C endpoint: median survival time, dose: 20.0 mg/kg/injection, schedule: Q01DX009 (ip), vehicle: water, evaluated on day 5): 134 % of control | T/C (T/C endpoint: median survival time, dose: 20.0 mg/kg/injection, schedule: Q01DX009 (ip), vehicle: water, evaluated on day 33): 134 % of control | T/C (T/C endpoint: median survival time, dose: 25.0 mg/kg/injection, schedule: Q01DX005 (ip), vehicle: alkali diluted with water): 126 % of control | T/C (T/C endpoint: median survival time, dose: 30.0 mg/kg/injection, schedule: Q01DX009 (ip), vehicle: alkali diluted with saline, evaluated on day 5): 129 % of control | T/C (T/C endpoint: median survival time, dose: 30.0 mg/kg/injection, schedule: Q01DX009 (ip), vehicle: alkali diluted with saline, evaluated on day 45): 126 % of control | T/C (T/C endpoint: median survival time, dose: 40.0 mg/kg/injection, schedule: Q01DX005 (ip), vehicle: Klucel (hydroxypropylcellulose) (HPC)): 140 % of control | T/C (T/C endpoint: median survival time, dose: 40.0 mg/kg/injection, schedule: Q01DX005 (ip), vehicle: alkali diluted with saline): 116, 118, 125, 130, 176, 182 [5 of 6 alive], 204 % of control | T/C (T/C endpoint: median survival time, dose: 40.0 mg/kg/injection, schedule: Q01DX005 (ip), vehicle: alkali diluted with water, evaluated on day 20): 116, 136, 139, 141, 149, 150, 156 % of control | T/C (T/C endpoint: median survival time, dose: 40.0 mg/kg/injection, schedule: Q01DX005 (ip), vehicle: alkali diluted with water, evaluated on day 30): 112, 117 (2×), 118 (2×), 119, 120, 121, 125 [5 of 6 alive], 128, 129, 130, 131, 134, 135, 136 (3×), 136 [5 of 6 alive], 137 (3×), 138, 139 (2×), 140, 141 (2×), 142, 146 (2×), 148, 152, 166 % of control
